Source: PubChem BioAssay AID720504 (National Center for Advancing Translational Sciences (NCATS), 2013)
Several values for one entry are separate records, joined by “and”; a condition that tells them apart may be missing. Equal entries are not always repeated. Screen size: about 360,000 compounds; about 10,000 (2.8%) were called active. Inconclusive results, whose numbers are uncertain, are shown with a selection of clear calls. Calls come from the whole dose curve; as a rule, active = well fitted inhibition curve with a large enough effect; inconclusive = small, poorly fitted or top-dose-only effect; inactive = flat fitted curve, though single readings scatter. Potencies beside an inconclusive call are fits to weak or partial responses and may not hold up.

By UniProt entry, the sequences of proteins in these tests, tags left out.
UniProt P53350, whole entry, looked up: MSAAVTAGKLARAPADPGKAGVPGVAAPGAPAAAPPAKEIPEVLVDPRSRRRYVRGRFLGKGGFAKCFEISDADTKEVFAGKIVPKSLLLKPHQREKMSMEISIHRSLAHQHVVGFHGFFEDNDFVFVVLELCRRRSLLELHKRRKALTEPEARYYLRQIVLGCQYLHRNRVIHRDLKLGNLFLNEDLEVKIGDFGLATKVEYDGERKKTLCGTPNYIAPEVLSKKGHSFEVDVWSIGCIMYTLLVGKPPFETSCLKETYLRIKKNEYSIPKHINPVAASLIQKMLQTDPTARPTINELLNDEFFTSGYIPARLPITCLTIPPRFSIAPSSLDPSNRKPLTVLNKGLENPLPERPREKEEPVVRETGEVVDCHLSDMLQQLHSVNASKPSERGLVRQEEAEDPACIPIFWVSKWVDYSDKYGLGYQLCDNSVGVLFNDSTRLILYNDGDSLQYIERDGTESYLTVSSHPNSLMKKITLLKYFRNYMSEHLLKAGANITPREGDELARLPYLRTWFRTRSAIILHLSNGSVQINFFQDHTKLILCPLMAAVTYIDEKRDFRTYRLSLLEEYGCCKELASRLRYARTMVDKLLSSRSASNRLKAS

These molecules were tested against Serine/threonine-protein kinase PLK1 (Homo sapiens) (UniProt P53350) (assay: qHTS for Inhibitors of PLK1-PDB (polo-like kinase 1 - polo-box domain): Primary Screen). Conditions: Plk1 PBD binding of FITC phosphopeptide, fluorescence polarization.
% is set by controls: 0 for no effect and ±100 for the full control effect; potency is the fitted concentration of half-maximal effect.
Note: nearly all actives have a fitted effect of over 65% in size.
Throughout, for max response, negative = inhibition: series mostly up to about 57 µM.

Row | SMILES | Potency | max response, negative = inhibition
1 | Cc1ccccc1N1C(=O)NC(=O)/C(=C\c2cnn(-c3ccccc3)c2)C1=O | active: 4.74 µM | 
2 | Cc1ccc(N2C(=O)NC(=O)/C(=C/c3ccc(-c4ccc(C(=O)O)c(Cl)c4)o3)C2=O)cc1 | active: 1.34 µM | 
3 | Nc1ccccc1-[n+]1c(-c2ccccc2)cc(-c2ccccc2)cc1-c1ccccc1 |  | inactive: 1.01%
4 | CCCCN1C(=O)NC(=O)C2(Cc3ccccc3N3CCOCC32)C1=O (stereo unspecified) | inconclusive: 23.8 µM [inhibitor, single point] | 
5 | O=C1c2ccccc2C(=O)N1SC1CCCCC1 | active: 1.89 µM | 
6 | O=C1NC(=S)NC(=O)C1=Cc1cccc2cc3ccccc3cc12 | active: 0.752 µM | 
7 | Cc1ccc(N2C(=O)NC(=O)/C(=C\C=C\c3ccco3)C2=O)cc1C | active: 1.5 µM | 
8 | CCN(CC)c1ccc(/C=C2\C(=O)NC(=O)N(Cc3ccco3)C2=O)cc1 | inconclusive: 0.597 µM [inhibitor, full curve] | 
9 | COc1ccc(/C=C2/C(=O)NC(=O)N(c3ccccc3)C2=O)cc1CN1C(=O)c2ccccc2C1=O | active: 5.97 µM | 
10 | C[n+]1c2cc(N)ccc2cc2ccc(N)cc21 | active: 336 nM and active: 670 nM | 
11 | COc1ccc(/C=C2/C(=O)NC(=O)N(c3ccc(C)c(C)c3)C2=O)cc1CN1C(=O)c2ccccc2C1=O | active: 4.23 µM | 
12 | CCOC(=O)c1c(NC(=O)c2c(N)n(CCCOC)c3nc4ccccc4nc23)sc2c1CCCC2 |  | inactive: -7.38%
13 | O=C1NC(=O)N(c2ccccc2)C(=O)/C1=C/c1ccc(Sc2ccccc2)o1 | inconclusive: 0.631 µM [inhibitor, full curve, poor fit] | 
14 | CCn1nc(/C=C/c2ccccc2)nc2c(=O)n(C)c(=O)nc1-2 | active: 23.8 µM | 
15 | CCOc1ccc(N2C(=O)/C(=C/c3ccco3)C(=O)NC2=S)cc1 | active: 1.34 µM | 
16 | CC/C(=N\NC(=O)c1ccccc1O)c1c(O)n(C2CCCCC2)c(=O)[nH]c1=O | inconclusive: 37.7 µM [inhibitor, single point] | 
17 | COCCNC(=O)N1[C@H]2CC[C@@H]1C(C(=O)OC)=C(c1ccc(OC)c(OC)c1)C2 |  | inactive: -4.49%
18 | CC1CCCC(C)N1C(=O)CSc1nnc(NC(=O)c2cccs2)s1 (stereo unspecified) | inconclusive: 23.8 µM [inhibitor, single point] | 
19 | CCOC(=O)c1c(-n2c(C)cc(C=C3C(=O)NC(=S)NC3=O)c2C)sc2c1CCCC2 | active: 0.299 µM | 
20 | Cc1ncc(CC(=O)n2cc(C(=O)c3cc(Cl)ccc3O)cn2)s1 | inconclusive: 31.6 µM [inhibitor, single point] | 
21 | CCCCCNc1c(C(=O)OCC)c(=O)[nH]c2ccccc12 | active: 26.7 µM | 
22 | O=C1NC(=O)N(Cc2ccc(F)cc2)C(=O)/C1=C\c1ccoc1 | active: 2.67 µM | 
23 | C=CCN1C(=O)NC(=O)/C(=C/C=C/c2ccccc2)C1=O | inconclusive: 9.47 µM [inhibitor, full curve, poor fit] | 
24 | Cc1cc(OCC(=O)NCc2ccncc2)c2c3c(c(=O)oc2c1)CCC3 |  | inactive: -11.5%

Row | SMILES | Potency | max response, negative = inhibition
25 | CC(=O)OC1C(O)C2=C3C4(C)C1C(C)(C)C(=O)CC4C3(O)C(OC(C)=O)C1(CC1C)C2=O (stereo unspecified) |  | inconclusive: -30.5% [inhibitor]
26 | COc1ccc(C(C)=O)cc1Cc1c(O)[nH]c(=S)[nH]c1=O | inconclusive: 29.9 µM [inhibitor, partial curve] | 
27 | O=C(Nc1cccc(C(F)(F)F)c1)Oc1ccccc1N1CCOCC1 | inconclusive: 29.9 µM [inhibitor, partial curve] | 
28 | CCNC(=O)O/N=C(\C)c1sc(-c2ccc(Cl)cc2)nc1C | inconclusive: 23.8 µM [inhibitor, single point] | 
29 | COc1ccc(CCNCc2ccccc2F)cc1 |  | inactive: -12.8%
30 | CC(C)Nc1ccc(Nc2ccccc2)cc1 | inconclusive: 26.7 µM [inhibitor, partial curve] | 
31 | Cc1c(N=Cc2c(O)n(CCc3ccc(F)cc3)c(=O)[nH]c2=O)c(=O)n(-c2ccccc2)n1C |  | inactive: 0.432%
32 | CN1CCC(c2c[nH]c3ccc(O)cc23)CC1 |  | inactive: -2.24%
33 | O=C(O)COc1ccccc1/C=C1\C(=O)NC(=O)N(CCC2=CCCCC2)C1=O | active: 11.9 µM | 
34 | CC[C@]12C=CCN3CCC4(c5cc(Br)c(OC)cc5N(C)C4[C@@](O)(C(=O)OC)[C@@H]1OC(C)=O)C32 (stereo partly specified) | inconclusive: 29.9 µM [inhibitor, single point] | 
35 | C/C1=C\[C@@H](C)C/C=C/[C@H]2[C@@H]3O[C@]3(C)[C@@H](C)[C@H]3[C@H](Cc4c[nH]c5ccccc45)NC(=O)[C@]32C(=O)/C=C/C(=O)[C@@H]1O | inconclusive: 26.7 µM [inhibitor, single point] | 
36 | O=C1CC(=O)N(c2ccccc2F)C(=O)N1 | inconclusive: 23.8 µM [inhibitor, partial curve] | 
37 | C/C(=N\NP(=S)(c1ccccc1)c1ccccc1)c1ccc(O)cc1O | inconclusive: 29.9 µM [inhibitor, partial curve] | 
38 | CC(C)CCN(N=O)[C@@H](Cc1ccccc1)CN(N=O)[C@@H](Cc1ccccc1)CN(C)N=O | inconclusive: 23.8 µM [inhibitor, single point] | 
39 | COCCN1C(=O)/C(=C/c2c(OC)cc(OC)cc2OC)C(=O)N(c2ccccc2)C1=O | inconclusive: 29.9 µM [inhibitor, single point] | 
40 | COC(=O)C(O)(c1ccc(N(C)C(=O)c2cccs2)cc1)C(F)(F)F (stereo unspecified) | active: 23.8 µM | 
41 | O=C(Nc1ccc(F)cc1)c1c(O)c2c(n(Cc3ccccc3)c1=O)CCCC2 | active: 26.7 µM | 
42 | Cn1cccc1/C=C1/C(=O)NC(=O)N(Cc2ccccc2)C1=O | inconclusive: 2.67 µM [inhibitor, partial curve] | 
43 | COc1cccc2c1C(=O)c1c(O)c3c(c(O)c1C2=O)CC(O)(C(C)=NO)CC3OC1CC(N)C(O)C(C)O1 (stereo unspecified) | inconclusive: 7.52 µM [inhibitor, partial curve] | 
44 | Cc1onc(-c2ccccc2Cl)c1C(=O)OCC(=O)c1ccc2c(c1)OCCO2 | inconclusive: 26.7 µM [inhibitor, partial curve] | 
45 | O=C(c1ccc(Cl)cc1)C1CCCN(Cc2ccc3ncccc3c2)C1 (stereo unspecified) |  | inconclusive: -30.3% [inhibitor]
46 | CN(C)C(=O)Oc1cc(=O)n2c3c(cccc13)CCC2 |  | inactive: -13.7%
47 | CC[C@H](C)/C=C(C)/C=C/C1=CC2=C(Cl)C(=O)[C@@](C)(OC(C)=O)C(=O)C2=CO1 | active: 1.06 µM | 
48 | O=C(c1ccccc1F)c1cn(CC(=O)N2CCOCC2)c2ccccc12 | inconclusive: 26.7 µM [inhibitor, partial curve] | 

Look-ups from the list.
O=C(c1ccc(Cl)cc1)C1CCCN(Cc2ccc3ncccc3c2)C1 (stereo unspecified) | max response, negative = inhibition: inconclusive: -30.3% [inhibitor]
COCCN1C(=O)/C(=C/c2c(OC)cc(OC)cc2OC)C(=O)N(c2ccccc2)C1=O | Potency: inconclusive: 29.9 µM [inhibitor, single point]

More records

Row | SMILES | Potency | max response, negative = inhibition
49 | COc1c(/C=C2/C(=O)NC(=O)N(C)C2=O)c(CCN(C)C(=O)c2ccccc2)cc2c1OCO2 | active: 26.7 µM | 
50 | O=c1[nH]c(O)c(C=NC2CCCCC2)c(=O)[nH]1 |  | inactive: -1.04%
51 | COC(=O)C1=C(c2ccc(S(C)(=O)=O)cc2)C[C@@H]2CC[C@H]1N2C(=O)N1CCCCC1 | inconclusive: 29.9 µM [inhibitor, partial curve] | 
52 | Cc1ccc(-c2csc(NC(CO)c3nc4ccccc4n3CCOCCO)n2)cc1 (stereo unspecified) | active: 21.2 µM | 
53 | CC(=O)CC(=O)C1C(=O)N(C)C(=O)N(C)C1=O | inconclusive: 21.2 µM [inhibitor, partial curve] | 
54 | Cc1c(Cl)cccc1N1C(=O)NC(=O)/C(=C\c2cc(C)n(-c3cccc(C(=O)O)c3C)c2C)C1=O | active: 26.7 µM | 
55 | OC(c1cccc(Cl)c1)(c1cccc(Cl)c1)C1CN2CCC1CC2 (stereo unspecified) |  | inactive: 0.422%
56 | CCOC(=O)c1c(/N=C/c2c(O)n(-c3ccccc3F)c(=S)[nH]c2=O)sc2c1CCCC2 | active: 23.8 µM | 
57 | O=C(Cc1cc(=O)[nH][nH]1)N/N=C/c1ccccc1Cl | active: 26.7 µM | 
58 | O=C1C2CCCN2C(c2cccnc2)N1c1ccc(Cl)c(Cl)c1 (stereo unspecified) |  | inactive: -3.21%
59 | Cc1ccc(-n2c(=O)[nH]c3ccccc3c2=O)cc1[N+](=O)[O-] |  | inactive: -15.6%
60 | COc1cc(O)c(C(=O)O)c(-c2cc(O)c(O)cc2C)c1 | inconclusive: 23.8 µM [inhibitor, single point] | 
61 | CCc1ccc(-n2c(O)c(/C=N/N3CCCCC3c3cccnc3)c(=O)[nH]c2=O)cc1 (stereo unspecified) |  | inactive: -12.6%
62 | CN1C(=O)C(=Cc2ccc(Sc3ccccc3)o2)C(=O)N(C)C1=O | inconclusive: 0.377 µM [inhibitor, full curve, poor fit] | 
63 | CCCC1(CCC)C(=O)NC(=NCc2ccccc2)NC1=O | inconclusive: 26.7 µM [inhibitor, single point] | 
64 | CN1c2ccc([N+](=O)[O-])cc2CC2(C(=O)NC(=O)N(c3ccc(Br)cc3)C2=O)C1c1ccccc1 (stereo unspecified) | inconclusive: 29.9 µM [inhibitor, partial curve] | 
65 | CCOC(=O)c1ccc(N=Cc2c(O)n(-c3ccc(OC)cc3)c(=S)[nH]c2=O)cc1 |  | inactive: -7.69%
66 | Oc1ccc(Cl)cc1Sc1cc(Cl)ccc1O | inconclusive: 26.7 µM [inhibitor, partial curve] | 
67 | Cc1ccc(OP2(=O)Nc3cc(C)c(C)cc3S2)cc1 (stereo unspecified) | active: 1.68 µM | 
68 | Cc1cc(=O)oc2c1c(C)nn2-c1nn[nH]n1 | active: 10.6 µM | 
69 | S=C(Nc1ccccc1)Nc1cccc(Br)c1 | active: 26.7 µM | 
70 | S=C(S)N1CCCC1 | inconclusive: 21.2 µM [inhibitor, partial curve] | 
71 | O=C1NC(=O)C(CCc2ccncc2)(CCc2ccncc2)C(=O)N1Cc1ccc(F)cc1 |  | inconclusive: -32% [inhibitor]

In the list so far, 10 contain fluorine.
Row | SMILES | Potency | max response, negative = inhibition
22 | O=C1NC(=O)N(Cc2ccc(F)cc2)C(=O)/C1=C\c1ccoc1 | active: 2.67 µM | 
27 | O=C(Nc1cccc(C(F)(F)F)c1)Oc1ccccc1N1CCOCC1 | inconclusive: 29.9 µM [inhibitor, partial curve] | 
29 | COc1ccc(CCNCc2ccccc2F)cc1 |  | inactive: -12.8%
31 | Cc1c(N=Cc2c(O)n(CCc3ccc(F)cc3)c(=O)[nH]c2=O)c(=O)n(-c2ccccc2)n1C |  | inactive: 0.432%
36 | O=C1CC(=O)N(c2ccccc2F)C(=O)N1 | inconclusive: 23.8 µM [inhibitor, partial curve] | 
40 | COC(=O)C(O)(c1ccc(N(C)C(=O)c2cccs2)cc1)C(F)(F)F (stereo unspecified) | active: 23.8 µM | 
41 | O=C(Nc1ccc(F)cc1)c1c(O)c2c(n(Cc3ccccc3)c1=O)CCCC2 | active: 26.7 µM | 
48 | O=C(c1ccccc1F)c1cn(CC(=O)N2CCOCC2)c2ccccc12 | inconclusive: 26.7 µM [inhibitor, partial curve] | 
56 | CCOC(=O)c1c(/N=C/c2c(O)n(-c3ccccc3F)c(=S)[nH]c2=O)sc2c1CCCC2 | active: 23.8 µM | 
71 | O=C1NC(=O)C(CCc2ccncc2)(CCc2ccncc2)C(=O)N1Cc1ccc(F)cc1 |  | inconclusive: -32% [inhibitor]
